These are yes or no findings as the source states them, for the method shown. In cells and extracts the contact can be indirect. Here binding means that the protein was enriched with, or labelled near, the bait; the list need not be complete.
The substances below were run against GABA type A receptor γ2 subunit (mouse (endogenous in cortical tissue)) (UniProt P22723) (assay: affinity purification with mass spectrometry; mouse cortical tissue lysate (mice injected with vehicle or 10 mg/kg DZP, 12 h) in co-IP buffer (50 mM Tris HCl pH 7.6, 50 mM NaCl, 0.25% Igepal, 1 mM EDTA), immunoprecipitated overnight with rabbit γ2 subunit antibody or rabbit IgG, Protein A Sepharose, 4°C; label-free HPLC-ESI-MS/MS; hits at least 3:1 enriched over IgG control).

Amino acid sequences for entries named in this document (tags omitted). Residues count along the entry.
UniProt P22723, residues 39-474: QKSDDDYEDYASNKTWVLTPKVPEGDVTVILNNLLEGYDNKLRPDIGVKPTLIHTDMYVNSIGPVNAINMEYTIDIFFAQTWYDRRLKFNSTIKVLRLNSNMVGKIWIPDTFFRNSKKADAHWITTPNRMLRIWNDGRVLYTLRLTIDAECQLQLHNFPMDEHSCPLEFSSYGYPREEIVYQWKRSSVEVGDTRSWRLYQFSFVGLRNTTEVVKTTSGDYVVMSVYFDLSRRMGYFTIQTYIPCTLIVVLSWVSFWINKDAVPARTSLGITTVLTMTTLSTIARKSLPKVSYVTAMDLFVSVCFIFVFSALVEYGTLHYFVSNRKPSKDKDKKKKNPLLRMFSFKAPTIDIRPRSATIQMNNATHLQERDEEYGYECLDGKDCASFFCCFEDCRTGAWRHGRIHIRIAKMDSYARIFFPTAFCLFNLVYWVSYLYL
UniProt P63011: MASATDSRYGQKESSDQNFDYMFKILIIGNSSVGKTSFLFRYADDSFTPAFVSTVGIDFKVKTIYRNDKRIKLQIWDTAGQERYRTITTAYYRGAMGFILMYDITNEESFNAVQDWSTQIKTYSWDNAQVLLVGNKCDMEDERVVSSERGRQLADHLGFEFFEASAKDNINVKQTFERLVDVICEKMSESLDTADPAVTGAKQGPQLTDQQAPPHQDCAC
UniProt P62874: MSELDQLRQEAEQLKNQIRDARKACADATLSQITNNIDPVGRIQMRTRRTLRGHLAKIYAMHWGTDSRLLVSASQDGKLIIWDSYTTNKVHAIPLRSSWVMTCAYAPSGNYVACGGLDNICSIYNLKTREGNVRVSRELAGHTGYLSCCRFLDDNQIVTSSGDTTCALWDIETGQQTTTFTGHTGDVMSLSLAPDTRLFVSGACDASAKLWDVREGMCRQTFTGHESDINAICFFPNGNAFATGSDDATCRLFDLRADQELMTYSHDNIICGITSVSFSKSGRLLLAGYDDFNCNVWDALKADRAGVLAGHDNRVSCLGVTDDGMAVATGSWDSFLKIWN
UniProt Q9CWS0: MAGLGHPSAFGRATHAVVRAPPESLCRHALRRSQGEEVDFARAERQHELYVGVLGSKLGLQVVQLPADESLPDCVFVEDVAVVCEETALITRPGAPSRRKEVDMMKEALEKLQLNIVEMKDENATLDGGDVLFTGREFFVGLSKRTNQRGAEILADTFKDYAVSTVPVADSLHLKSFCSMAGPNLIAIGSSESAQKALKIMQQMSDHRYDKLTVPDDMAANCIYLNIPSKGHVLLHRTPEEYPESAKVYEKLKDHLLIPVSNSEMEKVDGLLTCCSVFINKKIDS
UniProt P63044: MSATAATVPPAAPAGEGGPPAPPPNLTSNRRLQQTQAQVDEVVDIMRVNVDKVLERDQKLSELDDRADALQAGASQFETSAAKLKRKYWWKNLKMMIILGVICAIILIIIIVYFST
UniProt Q922F4: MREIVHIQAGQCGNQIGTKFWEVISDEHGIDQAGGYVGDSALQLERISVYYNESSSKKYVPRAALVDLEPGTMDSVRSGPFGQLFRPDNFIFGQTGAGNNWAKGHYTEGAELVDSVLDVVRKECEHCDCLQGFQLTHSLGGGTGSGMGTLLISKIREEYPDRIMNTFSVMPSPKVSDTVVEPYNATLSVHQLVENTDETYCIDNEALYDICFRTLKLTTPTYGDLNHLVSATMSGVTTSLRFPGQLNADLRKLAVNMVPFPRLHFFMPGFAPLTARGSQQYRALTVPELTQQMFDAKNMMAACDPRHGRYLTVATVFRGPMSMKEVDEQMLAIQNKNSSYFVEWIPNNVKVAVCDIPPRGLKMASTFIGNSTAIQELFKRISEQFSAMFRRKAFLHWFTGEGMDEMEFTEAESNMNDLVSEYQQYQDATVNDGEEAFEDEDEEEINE
UniProt Q8BG05: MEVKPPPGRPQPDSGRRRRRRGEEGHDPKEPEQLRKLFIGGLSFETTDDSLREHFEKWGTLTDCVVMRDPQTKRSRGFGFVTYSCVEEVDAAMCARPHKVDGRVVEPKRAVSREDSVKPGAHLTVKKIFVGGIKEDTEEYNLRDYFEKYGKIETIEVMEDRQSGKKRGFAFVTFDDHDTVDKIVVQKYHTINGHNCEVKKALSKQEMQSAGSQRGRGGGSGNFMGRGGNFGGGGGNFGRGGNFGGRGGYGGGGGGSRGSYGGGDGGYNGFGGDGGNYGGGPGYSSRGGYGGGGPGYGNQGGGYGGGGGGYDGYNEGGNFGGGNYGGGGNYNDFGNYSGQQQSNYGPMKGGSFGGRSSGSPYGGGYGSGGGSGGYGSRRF
UniProt P38647, residues 47-679: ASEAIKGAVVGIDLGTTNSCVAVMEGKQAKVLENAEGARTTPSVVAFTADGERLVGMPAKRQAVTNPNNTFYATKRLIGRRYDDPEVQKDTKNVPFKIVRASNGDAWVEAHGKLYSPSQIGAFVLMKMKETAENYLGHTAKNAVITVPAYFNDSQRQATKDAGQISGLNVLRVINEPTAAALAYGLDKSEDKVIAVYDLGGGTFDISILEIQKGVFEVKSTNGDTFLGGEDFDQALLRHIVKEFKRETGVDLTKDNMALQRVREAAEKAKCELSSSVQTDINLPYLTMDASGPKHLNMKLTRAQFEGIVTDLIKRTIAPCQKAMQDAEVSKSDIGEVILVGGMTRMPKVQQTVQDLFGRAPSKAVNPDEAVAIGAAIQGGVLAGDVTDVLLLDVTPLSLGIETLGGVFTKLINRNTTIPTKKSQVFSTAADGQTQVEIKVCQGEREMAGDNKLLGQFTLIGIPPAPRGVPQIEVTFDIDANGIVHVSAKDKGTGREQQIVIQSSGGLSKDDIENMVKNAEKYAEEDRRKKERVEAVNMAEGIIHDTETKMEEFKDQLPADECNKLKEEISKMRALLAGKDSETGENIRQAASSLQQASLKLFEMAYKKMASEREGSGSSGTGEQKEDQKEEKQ
UniProt P46096: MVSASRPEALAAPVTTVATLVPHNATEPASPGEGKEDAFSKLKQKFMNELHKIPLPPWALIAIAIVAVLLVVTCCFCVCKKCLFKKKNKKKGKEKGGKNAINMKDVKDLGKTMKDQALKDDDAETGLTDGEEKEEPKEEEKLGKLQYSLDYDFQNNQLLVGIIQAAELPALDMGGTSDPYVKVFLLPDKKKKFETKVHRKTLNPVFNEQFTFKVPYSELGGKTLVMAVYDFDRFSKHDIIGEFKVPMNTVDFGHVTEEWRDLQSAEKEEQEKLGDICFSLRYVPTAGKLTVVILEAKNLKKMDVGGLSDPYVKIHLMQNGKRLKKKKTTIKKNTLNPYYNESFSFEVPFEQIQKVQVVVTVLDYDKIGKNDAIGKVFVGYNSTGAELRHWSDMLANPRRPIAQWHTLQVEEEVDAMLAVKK
UniProt Q62277: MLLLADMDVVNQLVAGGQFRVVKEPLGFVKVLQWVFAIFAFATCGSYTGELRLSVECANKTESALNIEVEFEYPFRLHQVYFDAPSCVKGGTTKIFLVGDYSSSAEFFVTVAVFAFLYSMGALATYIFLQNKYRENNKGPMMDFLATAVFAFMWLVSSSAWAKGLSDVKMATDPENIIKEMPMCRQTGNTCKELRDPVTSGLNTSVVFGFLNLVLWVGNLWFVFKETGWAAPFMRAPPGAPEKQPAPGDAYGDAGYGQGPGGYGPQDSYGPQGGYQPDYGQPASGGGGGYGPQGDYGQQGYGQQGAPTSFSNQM
UniProt P80317: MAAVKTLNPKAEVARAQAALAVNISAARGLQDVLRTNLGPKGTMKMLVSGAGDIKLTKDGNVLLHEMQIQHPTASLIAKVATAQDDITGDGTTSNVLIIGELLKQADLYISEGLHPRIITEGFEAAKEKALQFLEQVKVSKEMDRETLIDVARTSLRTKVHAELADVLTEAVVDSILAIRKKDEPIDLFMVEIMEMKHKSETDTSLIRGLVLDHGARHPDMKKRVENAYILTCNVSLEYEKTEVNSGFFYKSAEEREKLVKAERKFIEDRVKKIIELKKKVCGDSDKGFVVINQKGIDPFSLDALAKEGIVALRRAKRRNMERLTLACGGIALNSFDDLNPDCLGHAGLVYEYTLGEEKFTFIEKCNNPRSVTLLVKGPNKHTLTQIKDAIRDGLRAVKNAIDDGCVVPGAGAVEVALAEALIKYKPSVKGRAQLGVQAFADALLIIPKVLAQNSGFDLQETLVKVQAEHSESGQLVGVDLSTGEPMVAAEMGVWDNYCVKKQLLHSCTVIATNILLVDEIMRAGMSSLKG
UniProt Q6PHN9: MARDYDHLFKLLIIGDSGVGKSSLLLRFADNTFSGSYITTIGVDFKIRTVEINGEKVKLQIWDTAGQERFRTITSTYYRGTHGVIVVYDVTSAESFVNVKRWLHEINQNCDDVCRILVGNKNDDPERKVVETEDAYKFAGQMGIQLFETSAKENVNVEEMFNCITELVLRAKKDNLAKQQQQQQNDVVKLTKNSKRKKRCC
UniProt Q91VM5: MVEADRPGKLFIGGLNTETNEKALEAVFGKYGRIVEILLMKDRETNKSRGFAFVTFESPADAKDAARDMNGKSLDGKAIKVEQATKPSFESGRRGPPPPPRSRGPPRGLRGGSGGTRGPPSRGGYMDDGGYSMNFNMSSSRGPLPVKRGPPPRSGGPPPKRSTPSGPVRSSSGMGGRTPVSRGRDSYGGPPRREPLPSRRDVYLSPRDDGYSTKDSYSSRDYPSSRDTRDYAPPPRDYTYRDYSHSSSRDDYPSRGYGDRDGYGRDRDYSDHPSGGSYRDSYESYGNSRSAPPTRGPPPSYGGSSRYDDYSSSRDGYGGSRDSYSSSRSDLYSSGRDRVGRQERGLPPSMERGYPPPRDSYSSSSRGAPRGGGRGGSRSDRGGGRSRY
UniProt P52480: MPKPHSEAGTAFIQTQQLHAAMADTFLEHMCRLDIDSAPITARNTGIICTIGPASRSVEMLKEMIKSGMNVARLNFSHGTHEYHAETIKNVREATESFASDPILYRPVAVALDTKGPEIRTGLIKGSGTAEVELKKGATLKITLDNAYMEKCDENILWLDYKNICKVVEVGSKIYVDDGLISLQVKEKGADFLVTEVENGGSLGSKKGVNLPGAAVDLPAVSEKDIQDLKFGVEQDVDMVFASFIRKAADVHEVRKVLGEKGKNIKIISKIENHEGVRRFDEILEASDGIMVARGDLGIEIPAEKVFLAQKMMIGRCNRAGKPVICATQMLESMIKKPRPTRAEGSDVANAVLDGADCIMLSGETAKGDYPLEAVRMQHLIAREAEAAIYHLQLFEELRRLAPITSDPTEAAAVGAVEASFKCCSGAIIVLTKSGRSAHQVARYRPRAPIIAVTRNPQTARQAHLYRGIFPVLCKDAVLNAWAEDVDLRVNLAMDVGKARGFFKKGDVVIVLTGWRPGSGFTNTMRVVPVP
UniProt P62259: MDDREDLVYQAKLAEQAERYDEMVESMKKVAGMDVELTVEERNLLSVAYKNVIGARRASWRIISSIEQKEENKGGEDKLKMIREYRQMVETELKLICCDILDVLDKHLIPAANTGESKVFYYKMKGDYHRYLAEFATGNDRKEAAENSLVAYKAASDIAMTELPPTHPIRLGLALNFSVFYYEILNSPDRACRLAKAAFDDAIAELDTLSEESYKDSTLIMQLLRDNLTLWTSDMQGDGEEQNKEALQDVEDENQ
UniProt Q3UGC7: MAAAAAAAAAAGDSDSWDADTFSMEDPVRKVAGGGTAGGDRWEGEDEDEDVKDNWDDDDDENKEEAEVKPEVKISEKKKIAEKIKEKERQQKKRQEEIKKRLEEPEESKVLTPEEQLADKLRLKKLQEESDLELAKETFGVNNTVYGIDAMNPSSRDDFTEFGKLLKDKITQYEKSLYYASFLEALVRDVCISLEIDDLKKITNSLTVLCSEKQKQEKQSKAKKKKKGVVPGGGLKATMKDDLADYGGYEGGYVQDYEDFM
UniProt Q3UHB8: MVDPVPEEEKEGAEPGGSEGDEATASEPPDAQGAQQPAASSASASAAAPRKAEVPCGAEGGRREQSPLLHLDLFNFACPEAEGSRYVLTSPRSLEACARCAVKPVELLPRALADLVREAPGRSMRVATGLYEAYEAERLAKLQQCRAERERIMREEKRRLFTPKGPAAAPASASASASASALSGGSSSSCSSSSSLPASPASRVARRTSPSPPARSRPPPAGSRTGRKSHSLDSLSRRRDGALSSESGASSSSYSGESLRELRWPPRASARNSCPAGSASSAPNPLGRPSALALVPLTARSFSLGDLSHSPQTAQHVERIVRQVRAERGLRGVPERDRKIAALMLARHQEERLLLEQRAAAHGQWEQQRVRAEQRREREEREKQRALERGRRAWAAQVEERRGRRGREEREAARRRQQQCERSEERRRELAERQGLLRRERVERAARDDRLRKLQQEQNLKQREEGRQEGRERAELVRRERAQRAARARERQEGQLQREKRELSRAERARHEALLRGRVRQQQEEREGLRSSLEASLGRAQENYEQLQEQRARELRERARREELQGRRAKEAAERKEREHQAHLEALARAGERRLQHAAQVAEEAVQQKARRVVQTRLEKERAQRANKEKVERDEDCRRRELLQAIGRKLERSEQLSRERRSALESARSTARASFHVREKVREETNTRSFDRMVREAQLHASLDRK

binding, binds:
RAB3A, member RAS oncogene family (from UniProt P63011 1-220)
G protein subunit beta 1 (from UniProt P62874 1-340)
Dimethylarginine dimethylaminohydrolase 1 (from UniProt Q9CWS0 1-285)
Vesicle associated membrane protein 2 (from UniProt P63044 1-116)
Potassium voltage-gated channel subfamily Q member 3 (from UniProt Q8K3F6 1-873)
Proteasome 26S subunit, ATPase 6 (from UniProt P62334 1-389)
Tubulin beta 6 class V (from UniProt Q922F4 1-447)
Heterogeneous nuclear ribonucleoprotein A3 (from UniProt Q8BG05 1-379)
Heat shock protein family A (Hsp70) member 9 (from UniProt P38647 47-679)
Synaptotagmin 1 (from UniProt P46096 1-421)
Adaptor related protein complex 2 subunit alpha 1 (from UniProt P17426-2 1-955)
Collapsin response mediator protein 1 (from UniProt P97427 1-572)
Cofilin 1 (from UniProt P18760 1-166)
Glutamate metabotropic receptor 2 (from UniProt Q14BI2 19-872)
Cyclin dependent kinase 5 (from UniProt P49615 1-292)
Protein phosphatase 3 catalytic subunit alpha (from UniProt P63328 1-521)
Fibronectin 1 (from UniProt P11276 33-2477)
Erythrocyte membrane protein band 4.1 like 1 (from UniProt Q9Z2H5 1-879)
Synaptophysin (from UniProt Q62277 1-314)
Chaperonin containing TCP1 subunit 6A (from UniProt P80317 1-531)
RAB35, member RAS oncogene family (from UniProt Q6PHN9 1-201)
ATP synthase F1 subunit beta (from UniProt P56480 47-529)
Calcium/calmodulin dependent protein kinase II alpha (from UniProt P11798 1-478)
RNA binding motif protein, X-linked like-1 (from UniProt Q91VM5 1-388)
Pyruvate kinase M1/2 (from UniProt P52480 1-531)
Tyrosine 3-monooxygenase/tryptophan 5-monooxygenase activation protein epsilon (14-3-3 epsilon) (from UniProt P62259 1-255)
Eukaryotic translation initiation factor 3 subunit J (from UniProt Q3UGC7 1-261)
Tumor protein D52 like 2 (from UniProt Q9CYZ2 1-220)
WD repeat domain 7 (from UniProt Q920I9 1-1489)
Coiled-coil domain containing 177 (from UniProt Q3UHB8 1-706)
ELAV like RNA binding protein 2 (from UniProt Q60899 1-360)
Prohibitin 2 (from UniProt O35129 1-299)
